Reference: PubChem BioAssay AID1224827 (NIAID, 2016)
Assay: 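Identify regulators of the macrophage TNF-alpha response to bacterial LPS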 (follow-up of hits). Cell system: RAW264.7 G9 mouse macrophage reporter clone. Knock-down reagent: single siRNA against mouse genes, 100 nM siRNA. Duration: siRNA for 2 days, then LPS about 16 h. Challenge: bacterial lipopolysaccharide (LPS), 10 ng/ml, cells fixed after overnight (about 16 h) stimulation. Detection: 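TNF promoter reporter red fluorescence in nuclei, background subtracted, normalised per plate and to non-targeting control siRNA, as z-scores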. Direction: TNF reporter z-score, mean and TNF reporter z-score: higher = stronger Tnf promoter reporter signal; gene median z, three same-vendor siRNAs: higher = stronger Tnf reporter signal for the gene. Hit rule: 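Active siRNA: replicate-mean z-score of 2 or more, or -2 or less; no calls for control wells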.
In all, the deposit lists about 3,800 reagents; this is an unselected part. About 2,200 of all reagents (57%) count as active. 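Active means a strong reporter change in either direction; calls are per siRNA, not per gene; qiagen siRNAs gave weaker effects.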 Unmarked entries are inactive. The numbers tell different reagents against one gene apart. Not all columns of the deposit are shown. No sequences are given here.

no.	gene knocked down	reagent no.	TNF reporter z-score, mean	gene median z, three same-vendor siRNAs	TNF reporter z-score, repeat 1
1	C9 (complement component 9)	1	-3.38 (active)	-4.08	-2.02
2	C9 (complement component 9)	2	-2.45 (active)	-4.08	-4.12
3	C9 (complement component 9)	3	-4.36 (active)	-4.08	-4.68
4	C9 (complement component 9)	4	2.48 (active)	-0.404	5.08
5	C9 (complement component 9)	5	0.872	-0.404	2.43
6	C9 (complement component 9)	6	-3.32 (active)	-0.404	-3.83
7	Atg12 (autophagy related 12)	1	-1.9	-2.5	-2.27
8	Atg12 (autophagy related 12)	2	-2.5 (active)	-2.5	-2.61
9	Atg12 (autophagy related 12)	3	-3.23 (active)	-2.5	-3.61
10	Atg12 (autophagy related 12)	4	2.81 (active)	0.621	4.28
11	Atg12 (autophagy related 12)	5	0.621	0.621	1.14
12	Atg12 (autophagy related 12)	6	-2.15 (active)	0.621	-1.74
13	Tmem107 (transmembrane protein 107)	1	8.12 (active)	0.0599	7.12
14	Tmem107 (transmembrane protein 107)	2	0.0599	0.0599	0.335
15	Tmem107 (transmembrane protein 107)	3	-3.72 (active)	0.0599	-4.06
16	Tmem107 (transmembrane protein 107)	4	2.82 (active)	1.11	5.07
17	Tmem107 (transmembrane protein 107)	5	1.34	1.11	3.18
18	Tmem107 (transmembrane protein 107)	6	0.851	1.11	1.64
19	Naa50 (N(alpha)-acetyltransferase 50, NatE catalytic subunit)	1	-2.13 (active)	-2.36	-2.22
20	Naa50 (N(alpha)-acetyltransferase 50, NatE catalytic subunit)	2	-2.63 (active)	-2.36	-1.63
21	Naa50 (N(alpha)-acetyltransferase 50, NatE catalytic subunit)	3	-2.62 (active)	-2.36	-2.75
22	Naa50 (N(alpha)-acetyltransferase 50, NatE catalytic subunit)	4	3.52 (active)	1.16	5.84
23	Naa50 (N(alpha)-acetyltransferase 50, NatE catalytic subunit)	5	3.1 (active)	1.16	5.07
24	Naa50 (N(alpha)-acetyltransferase 50, NatE catalytic subunit)	6	-0.956	1.16	-0.482
25	Cdc5l (cell division cycle 5-like)	1	-1.25	-3.46	-1.22
26	Cdc5l (cell division cycle 5-like)	2	-3.46 (active)	-3.46	-2.22
27	Cdc5l (cell division cycle 5-like)	3	-5.65 (active)	-3.46	-5.56
28	Cdc5l (cell division cycle 5-like)	4	2.21 (active)	-0.0513	3.67
29	Cdc5l (cell division cycle 5-like)	5	-0.0513	-0.0513	0.62
30	Cdc5l (cell division cycle 5-like)	6	-2.53 (active)	-0.0513	-2.8
31	Shc2	1	1.88	1.09	2.11
32	Shc2	2	2.08 (active)	1.09	3.65
33	Shc2	3	-1	1.09	-1.52

Ordered by “TNF reporter z-score, repeat 1” (high to low): 3 of the entries above
gene knocked down	reagent no.	TNF reporter z-score, mean	gene median z, three same-vendor siRNAs	TNF reporter z-score, repeat 1
C9 (complement component 9)	5	0.872	-0.404	2.43
Atg12 (autophagy related 12)	1	-1.9	-2.5	-2.27
C9 (complement component 9)	6	-3.32 (active)	-0.404	-3.83
